From publication PMC7691508 (Nature Communications, 2020)
These are yes or no findings as the source states them, for the method shown. For part of these data: In cells and extracts the contact can be indirect. Some results given as binding are weak or reduced against the parent protein; the word gives no strength.

By UniProt entry, the sequences of proteins in these tests, tags left out.
UniProt Q8N884: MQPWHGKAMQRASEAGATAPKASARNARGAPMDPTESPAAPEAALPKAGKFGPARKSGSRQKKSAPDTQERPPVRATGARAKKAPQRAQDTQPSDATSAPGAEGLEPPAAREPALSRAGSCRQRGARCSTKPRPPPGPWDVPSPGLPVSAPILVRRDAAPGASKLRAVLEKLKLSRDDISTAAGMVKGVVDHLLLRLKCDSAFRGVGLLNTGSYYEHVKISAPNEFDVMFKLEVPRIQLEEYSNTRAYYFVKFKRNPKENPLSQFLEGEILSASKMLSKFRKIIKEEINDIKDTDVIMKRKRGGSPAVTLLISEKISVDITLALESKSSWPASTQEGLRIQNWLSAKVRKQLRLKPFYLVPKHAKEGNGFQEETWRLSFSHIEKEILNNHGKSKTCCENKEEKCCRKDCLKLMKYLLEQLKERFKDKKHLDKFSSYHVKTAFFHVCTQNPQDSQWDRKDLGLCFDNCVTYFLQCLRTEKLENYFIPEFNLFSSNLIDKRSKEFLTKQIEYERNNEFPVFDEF

Assays:
[1] = target: cyclic GMP-AMP synthase (cGAS) (UniProt Q8N884); assay: co-IP
GST-cGAS = GST-cGAS (UniProt Q8N884); assay: pull-down; both purified

Row | Substance | binding [1] | binding (GST-cGAS)
1 | β-arrestin 2 K171R mutant (from UniProt P32121 1-409) | binds | –
2 | His-β-arrestin 2 (from UniProt P32121 1-409) | – | binds
3 | β-arrestin 2 (from UniProt P32121 1-409) | binds | –
